The results in this text go back to publication PMC8120699.

Amino acid sequences for entries named in this document (tags omitted). Residues count along the entry.
UniProt P21333: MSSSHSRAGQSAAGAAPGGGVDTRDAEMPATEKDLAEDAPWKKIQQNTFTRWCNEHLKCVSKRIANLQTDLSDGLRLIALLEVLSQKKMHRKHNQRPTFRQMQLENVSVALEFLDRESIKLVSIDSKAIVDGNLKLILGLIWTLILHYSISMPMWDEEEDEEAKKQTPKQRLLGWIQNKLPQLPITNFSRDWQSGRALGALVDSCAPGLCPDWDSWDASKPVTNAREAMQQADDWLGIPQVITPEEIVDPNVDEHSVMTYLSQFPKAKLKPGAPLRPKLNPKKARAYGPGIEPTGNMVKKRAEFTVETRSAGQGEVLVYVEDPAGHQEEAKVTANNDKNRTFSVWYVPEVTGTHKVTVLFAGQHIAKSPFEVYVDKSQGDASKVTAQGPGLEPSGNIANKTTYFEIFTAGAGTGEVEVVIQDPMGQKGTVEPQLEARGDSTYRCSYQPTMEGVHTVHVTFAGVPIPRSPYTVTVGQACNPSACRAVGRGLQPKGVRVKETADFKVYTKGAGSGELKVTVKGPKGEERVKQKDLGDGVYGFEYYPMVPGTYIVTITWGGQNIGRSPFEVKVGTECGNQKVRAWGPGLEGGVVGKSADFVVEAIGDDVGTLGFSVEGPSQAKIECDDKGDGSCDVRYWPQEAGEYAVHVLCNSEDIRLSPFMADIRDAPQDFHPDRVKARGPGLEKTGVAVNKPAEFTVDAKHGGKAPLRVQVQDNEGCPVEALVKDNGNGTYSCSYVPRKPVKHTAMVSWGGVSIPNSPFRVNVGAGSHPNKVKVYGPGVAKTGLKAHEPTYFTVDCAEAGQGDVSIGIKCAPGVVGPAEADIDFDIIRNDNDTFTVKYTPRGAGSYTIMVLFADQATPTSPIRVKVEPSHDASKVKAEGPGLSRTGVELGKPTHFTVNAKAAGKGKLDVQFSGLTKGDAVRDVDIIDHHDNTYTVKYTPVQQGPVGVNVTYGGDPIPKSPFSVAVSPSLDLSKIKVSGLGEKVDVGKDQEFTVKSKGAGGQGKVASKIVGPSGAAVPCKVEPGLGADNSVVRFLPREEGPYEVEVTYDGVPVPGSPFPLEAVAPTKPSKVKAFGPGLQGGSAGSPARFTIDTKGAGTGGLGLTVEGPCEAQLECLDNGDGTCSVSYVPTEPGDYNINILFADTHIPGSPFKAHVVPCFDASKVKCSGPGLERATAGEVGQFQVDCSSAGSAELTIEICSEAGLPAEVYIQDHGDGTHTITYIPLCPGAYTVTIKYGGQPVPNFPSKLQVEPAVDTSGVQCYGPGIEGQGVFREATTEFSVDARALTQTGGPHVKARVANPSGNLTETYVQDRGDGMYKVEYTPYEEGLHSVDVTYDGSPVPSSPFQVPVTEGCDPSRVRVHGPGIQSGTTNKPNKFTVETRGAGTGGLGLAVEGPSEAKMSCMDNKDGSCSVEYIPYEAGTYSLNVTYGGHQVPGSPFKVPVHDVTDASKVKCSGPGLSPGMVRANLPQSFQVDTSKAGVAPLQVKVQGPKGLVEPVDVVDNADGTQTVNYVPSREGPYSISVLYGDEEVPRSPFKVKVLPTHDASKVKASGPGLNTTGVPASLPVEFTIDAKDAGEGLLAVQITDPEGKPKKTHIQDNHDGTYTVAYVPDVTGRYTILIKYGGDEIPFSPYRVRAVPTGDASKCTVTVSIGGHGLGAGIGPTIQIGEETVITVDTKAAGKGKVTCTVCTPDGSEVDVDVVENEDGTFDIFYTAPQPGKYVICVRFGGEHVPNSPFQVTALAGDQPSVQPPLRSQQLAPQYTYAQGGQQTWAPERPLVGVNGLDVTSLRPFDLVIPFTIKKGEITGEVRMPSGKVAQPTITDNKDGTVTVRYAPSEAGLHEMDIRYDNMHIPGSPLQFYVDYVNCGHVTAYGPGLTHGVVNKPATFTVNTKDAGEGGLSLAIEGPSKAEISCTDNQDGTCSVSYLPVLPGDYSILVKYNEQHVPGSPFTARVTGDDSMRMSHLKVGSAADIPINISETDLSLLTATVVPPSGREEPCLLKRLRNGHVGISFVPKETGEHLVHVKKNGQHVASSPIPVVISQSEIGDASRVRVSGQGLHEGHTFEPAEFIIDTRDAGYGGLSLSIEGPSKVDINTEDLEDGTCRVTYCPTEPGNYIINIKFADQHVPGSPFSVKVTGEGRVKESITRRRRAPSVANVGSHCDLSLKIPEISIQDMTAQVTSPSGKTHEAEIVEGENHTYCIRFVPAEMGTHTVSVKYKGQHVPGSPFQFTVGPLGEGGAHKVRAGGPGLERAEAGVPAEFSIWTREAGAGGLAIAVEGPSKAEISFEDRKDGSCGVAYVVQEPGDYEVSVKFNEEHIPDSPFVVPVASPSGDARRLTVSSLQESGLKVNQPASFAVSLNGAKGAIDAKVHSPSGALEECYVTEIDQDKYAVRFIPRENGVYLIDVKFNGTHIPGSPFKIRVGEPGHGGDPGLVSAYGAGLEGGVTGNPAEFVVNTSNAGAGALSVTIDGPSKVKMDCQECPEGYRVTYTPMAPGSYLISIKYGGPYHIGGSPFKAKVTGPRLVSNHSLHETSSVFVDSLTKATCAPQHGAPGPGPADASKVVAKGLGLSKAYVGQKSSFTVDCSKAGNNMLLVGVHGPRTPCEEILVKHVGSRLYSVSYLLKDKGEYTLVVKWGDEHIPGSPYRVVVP
UniProt P07737: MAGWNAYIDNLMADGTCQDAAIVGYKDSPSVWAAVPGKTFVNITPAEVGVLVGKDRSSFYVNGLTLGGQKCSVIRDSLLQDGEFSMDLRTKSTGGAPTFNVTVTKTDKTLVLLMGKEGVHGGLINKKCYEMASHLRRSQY
UniProt P0DMV8: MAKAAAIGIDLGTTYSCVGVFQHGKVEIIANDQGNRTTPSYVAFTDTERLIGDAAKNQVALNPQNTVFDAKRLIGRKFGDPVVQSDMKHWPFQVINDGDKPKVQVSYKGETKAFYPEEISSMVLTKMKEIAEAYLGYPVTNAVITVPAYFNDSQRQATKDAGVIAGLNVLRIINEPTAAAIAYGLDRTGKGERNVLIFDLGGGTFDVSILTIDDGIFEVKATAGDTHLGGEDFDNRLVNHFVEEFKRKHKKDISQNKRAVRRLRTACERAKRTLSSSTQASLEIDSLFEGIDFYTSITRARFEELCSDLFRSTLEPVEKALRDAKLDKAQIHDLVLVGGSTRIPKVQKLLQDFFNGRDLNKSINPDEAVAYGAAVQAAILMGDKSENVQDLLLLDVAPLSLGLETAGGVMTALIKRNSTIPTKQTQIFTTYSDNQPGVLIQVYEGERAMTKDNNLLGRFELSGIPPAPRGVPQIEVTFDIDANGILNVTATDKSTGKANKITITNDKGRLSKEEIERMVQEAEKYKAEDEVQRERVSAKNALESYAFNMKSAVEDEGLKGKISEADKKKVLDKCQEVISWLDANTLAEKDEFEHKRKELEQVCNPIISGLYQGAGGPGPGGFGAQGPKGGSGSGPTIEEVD
UniProt P10809, residues 27-573: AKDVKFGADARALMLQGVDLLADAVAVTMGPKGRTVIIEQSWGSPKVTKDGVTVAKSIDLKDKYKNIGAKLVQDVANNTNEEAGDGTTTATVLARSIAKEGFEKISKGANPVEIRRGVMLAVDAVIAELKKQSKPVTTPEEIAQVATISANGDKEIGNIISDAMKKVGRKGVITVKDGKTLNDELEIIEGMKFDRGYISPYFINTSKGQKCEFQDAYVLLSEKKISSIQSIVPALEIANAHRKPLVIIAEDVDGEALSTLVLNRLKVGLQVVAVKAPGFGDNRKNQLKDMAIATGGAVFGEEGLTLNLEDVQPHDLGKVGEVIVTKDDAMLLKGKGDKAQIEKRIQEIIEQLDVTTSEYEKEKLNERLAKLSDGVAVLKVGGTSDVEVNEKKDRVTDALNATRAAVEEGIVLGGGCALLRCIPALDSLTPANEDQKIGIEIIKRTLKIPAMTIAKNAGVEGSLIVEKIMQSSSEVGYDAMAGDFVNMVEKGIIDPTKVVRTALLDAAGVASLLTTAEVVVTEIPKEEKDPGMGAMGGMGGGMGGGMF
UniProt Q02413, residues 50-1049: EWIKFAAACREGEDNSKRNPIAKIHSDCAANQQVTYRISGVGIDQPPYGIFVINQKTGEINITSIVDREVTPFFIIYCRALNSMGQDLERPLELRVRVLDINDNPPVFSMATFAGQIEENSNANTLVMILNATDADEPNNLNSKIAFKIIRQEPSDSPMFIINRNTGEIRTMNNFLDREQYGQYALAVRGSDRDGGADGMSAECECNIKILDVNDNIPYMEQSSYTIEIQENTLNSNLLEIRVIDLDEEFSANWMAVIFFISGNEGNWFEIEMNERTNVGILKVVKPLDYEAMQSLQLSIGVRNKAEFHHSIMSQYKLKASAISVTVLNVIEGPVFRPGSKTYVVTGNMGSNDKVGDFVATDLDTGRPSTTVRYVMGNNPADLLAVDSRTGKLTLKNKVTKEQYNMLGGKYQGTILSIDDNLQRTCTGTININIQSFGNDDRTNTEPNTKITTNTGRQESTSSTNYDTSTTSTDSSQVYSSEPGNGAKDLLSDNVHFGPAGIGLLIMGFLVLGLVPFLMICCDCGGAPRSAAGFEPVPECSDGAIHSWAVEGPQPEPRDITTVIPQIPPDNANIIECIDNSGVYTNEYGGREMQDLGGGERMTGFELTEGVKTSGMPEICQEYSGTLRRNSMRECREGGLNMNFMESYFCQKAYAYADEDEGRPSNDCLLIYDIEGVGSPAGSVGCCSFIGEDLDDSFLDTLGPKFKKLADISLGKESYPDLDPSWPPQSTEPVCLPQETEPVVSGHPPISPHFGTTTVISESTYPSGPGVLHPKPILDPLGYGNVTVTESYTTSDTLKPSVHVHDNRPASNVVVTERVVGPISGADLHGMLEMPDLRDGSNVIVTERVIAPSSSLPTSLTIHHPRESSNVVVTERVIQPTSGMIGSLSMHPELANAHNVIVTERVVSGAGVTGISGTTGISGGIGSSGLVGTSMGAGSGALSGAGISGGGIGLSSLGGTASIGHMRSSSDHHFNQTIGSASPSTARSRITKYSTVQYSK
UniProt P48643: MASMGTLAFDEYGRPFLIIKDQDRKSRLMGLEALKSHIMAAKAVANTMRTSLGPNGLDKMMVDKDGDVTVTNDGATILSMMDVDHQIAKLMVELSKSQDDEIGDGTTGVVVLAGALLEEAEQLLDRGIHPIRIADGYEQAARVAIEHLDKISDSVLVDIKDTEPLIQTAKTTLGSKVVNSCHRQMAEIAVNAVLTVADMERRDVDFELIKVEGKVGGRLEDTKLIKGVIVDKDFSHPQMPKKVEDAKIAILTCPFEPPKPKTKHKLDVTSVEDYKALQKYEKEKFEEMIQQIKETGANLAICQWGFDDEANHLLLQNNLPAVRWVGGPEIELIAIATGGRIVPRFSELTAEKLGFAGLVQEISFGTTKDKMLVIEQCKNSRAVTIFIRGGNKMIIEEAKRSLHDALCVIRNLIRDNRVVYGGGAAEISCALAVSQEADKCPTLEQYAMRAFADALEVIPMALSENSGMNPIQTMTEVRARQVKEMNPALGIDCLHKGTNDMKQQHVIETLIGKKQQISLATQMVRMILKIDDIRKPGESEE
UniProt P50990: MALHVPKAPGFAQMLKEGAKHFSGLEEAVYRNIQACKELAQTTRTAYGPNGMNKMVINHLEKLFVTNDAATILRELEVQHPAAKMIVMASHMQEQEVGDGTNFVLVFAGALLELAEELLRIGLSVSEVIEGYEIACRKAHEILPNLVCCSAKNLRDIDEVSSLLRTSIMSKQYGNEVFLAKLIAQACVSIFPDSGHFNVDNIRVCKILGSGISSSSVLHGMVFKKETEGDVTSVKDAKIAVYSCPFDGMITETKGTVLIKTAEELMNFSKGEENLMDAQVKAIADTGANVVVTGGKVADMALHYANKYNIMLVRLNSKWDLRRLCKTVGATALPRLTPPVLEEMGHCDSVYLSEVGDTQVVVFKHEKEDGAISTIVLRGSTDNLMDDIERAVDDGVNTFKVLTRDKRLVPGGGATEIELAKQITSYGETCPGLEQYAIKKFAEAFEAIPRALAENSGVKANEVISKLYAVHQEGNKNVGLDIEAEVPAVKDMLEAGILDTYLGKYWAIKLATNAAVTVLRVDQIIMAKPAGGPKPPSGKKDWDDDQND
UniProt Q99497: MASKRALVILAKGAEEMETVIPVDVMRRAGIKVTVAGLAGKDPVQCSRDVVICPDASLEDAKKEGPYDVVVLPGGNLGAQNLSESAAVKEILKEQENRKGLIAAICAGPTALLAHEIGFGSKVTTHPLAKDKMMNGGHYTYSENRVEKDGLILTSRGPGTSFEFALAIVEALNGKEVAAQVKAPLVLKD

The chains are these.
B1: CCT2 (protein, UniProt P78371 1-535)
chain: MASLSLAPVNIFKAGADEERAETARLTSFIGAIAIGDLVKSTLGPKGMDKILLSSGRDASLMVTNDGATILKNIGVDNPAAKVLVDMSRVQDDEVGDGTTSVTVLAAELLREAESLIAKKIHPQTIIAGWREATKAAREALLSSAVDHGSDEVKFRQDLMNIAGTTLSSKLLTHHKDHFTKLAVEAVLRLKGSGNLEAIHIIKKLGGSLADSYLDEGFLLDKKIGVNQPKRIENAKILIANTGMDTDKIKIFGSRVRVDSTAKVAEIEHAEKEKMKEKVERILKHGINCFINRQLIYNYPEQLFGAAGVMAIEHADFAGVERLALVTGGEIASTFDHPELVKLGSCKLIEEVMIGEDKLIHFSGVALGEACTIVLRGATQQILDEAERSLHDALCVLAQTVKDSRTVYGGGCSEMLMAHAVTQLANRTPGKEAVAMESYAKALRMLPTIIADNAGYDSADLVAQLRAAHSEGNTTAGLDMREGTIGDMAILGITESFQVKRQVLLSAAEAAEVILRVDNIIKAAPRKRVPDHHPC

No constants are given. Whether binding was seen depends on the method and setting. In cells and extracts the contact can be indirect. A yes stands for co-enrichment or nearness to the bait. Other partners may have been found. Tags and fused reporters may be left off the sequences shown.

The experiment deals with T1, Flag-PUS7 (pseudouridine synthase 7, wild type, overexpressed from lentivirus LV-PUS7) (UniProt Q96PZ0).
T1 sequence: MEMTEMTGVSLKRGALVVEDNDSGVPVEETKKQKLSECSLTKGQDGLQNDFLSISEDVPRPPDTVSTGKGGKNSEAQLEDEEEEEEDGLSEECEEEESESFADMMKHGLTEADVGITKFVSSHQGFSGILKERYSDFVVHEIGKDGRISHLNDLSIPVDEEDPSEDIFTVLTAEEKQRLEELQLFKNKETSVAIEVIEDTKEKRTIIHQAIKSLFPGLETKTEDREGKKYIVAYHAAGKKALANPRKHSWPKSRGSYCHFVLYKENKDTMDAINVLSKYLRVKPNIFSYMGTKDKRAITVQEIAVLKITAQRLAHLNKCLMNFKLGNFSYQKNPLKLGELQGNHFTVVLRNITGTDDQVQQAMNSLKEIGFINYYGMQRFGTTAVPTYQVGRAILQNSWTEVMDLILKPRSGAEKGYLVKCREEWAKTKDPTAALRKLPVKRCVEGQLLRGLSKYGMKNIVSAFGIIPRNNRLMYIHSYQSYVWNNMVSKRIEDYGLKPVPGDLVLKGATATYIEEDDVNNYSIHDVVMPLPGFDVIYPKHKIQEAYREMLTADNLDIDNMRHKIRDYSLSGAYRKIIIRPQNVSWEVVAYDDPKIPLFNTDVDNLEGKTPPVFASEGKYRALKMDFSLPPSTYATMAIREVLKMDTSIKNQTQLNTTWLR
In words: affinity purification with mass spectrometry; DLD1 cells transfected with Flag-PUS7, immunoprecipitated with anti-Flag magnetic beads, LC-MS/MS; IgG control.
Turning to FLNA (from UniProt P21333 1-2647), the binding result is recorded as “binds”.
Next, PFN1 (from UniProt P07737 1-140): “binds”; HSP90AB1 (from UniProt P08238 1-724): “binds”.
The result for HSPA1A (from UniProt P0DMV8 1-641) reads “binds”.
As to HSPD1 (from UniProt P10809 27-573), the binding result is recorded as “binds”.
Next, HSP90AA1 (from UniProt P07900 1-732): “binds”; DSG1 (from UniProt Q02413 50-1049): “binds”; CCT5 (from UniProt P48643 1-541): “binds”.
The result for CALR (from UniProt P27797 18-417) reads “binds”.
As for CCT8 (from UniProt P50990 1-548), the binding entry is listed as “binds”.
In the case of PARK7 (from UniProt Q99497 1-189), the binding result is “binds”.
Regarding B1, the binding result is “binds”.
